Assay results from PMC10849753, “Antiproliferative activity of platinum(II) and copper(II) complexes containing novel biquinoxaline ligands” (Metallomics: Integrated Biometal Science, 2024).

Tested on: CT-DNA
Experiment: UV (electronic absorption) titration with CT-DNA
Design: species or system calf
Settings: binding to CT-DNA, 310-340 K

Compound	ΔG^o (standard Gibbs free energy change) [J]	ΔH^o (standard enthalpy change) [J]	ΔS^o (standard entropy change) [J/K]
[Cl][Cu][Cl].c1csc(-c2nc3ccc(-c4ccc5nc(-c6cccs6)c(-c6cccs6)nc5c4)cc3nc2-c2cccs2)c1 [Cu(ttbq)Cl2]	-19600	-11500	26.78
[Cl][Pt][Cl].c1csc(-c2nc3ccc(-c4ccc5nc(-c6cccs6)c(-c6cccs6)nc5c4)cc3nc2-c2cccs2)c1 [Pt(ttbq)Cl2]	-16800	-28700	−39.74
[Cl][Cu][Cl].c1ccc(-c2nc3ccc(-c4ccc5nc(-c6ccccn6)c(-c6ccccn6)nc5c4)cc3nc2-c2ccccn2)nc1 [Cu(tpbq)Cl2]	-22400	-85300	−207.58
[Cl][Pt][Cl].c1ccc(-c2nc3ccc(-c4ccc5nc(-c6ccccn6)c(-c6ccccn6)nc5c4)cc3nc2-c2ccccn2)nc1 [Pt(tpbq)Cl2]	-19900	-38200	−59.89
